Experimental data as given in patent US8101792B2, “Compounds isolated from Antrodia cinnamomea and use thereof” (Simpson Biotech Co., Ltd., priority 2007, dated 2012).
For at least one compound, name, drawing or mass did not settle the structure.

Test: Identification of metabolites in rat feces, bile, plasma and urine by LC/MS-MS after administration of Antrodin C
Assay type: in vivo
Description: The metabolites in feces, bile and plasma were analyzed by LC/MS-MS. The LC/MS-MS equipment comprised a column containing TSK gel ODS-80 Ts (particle size, 5 μm; 4.6×150 mm i.d., Tosoh Co., Tokyo, Japan). Samples were eluted through the column with 0.1% AcOH and acetonitrile (35:65) at a flow rate of 1 ml/min at 30° C. The standard negative ion mode was selected under the following conditions: full scan range, 50-800 m/z; scan resolution, 13000 m/z/sec; nebulizer, 50.0 psi; dry gas, 10.0 l/min; dry temperature, 360° C. Full scanning in the region of m/z 50 to 600 assigned several peaks to Antrodin C and the metabolites in the […] when compared with those of blank samples (FIG. 3). […] Comparing to standard materials and synthesized compounds, the peak in the MS profile at m/z 328 [M-H]^− with retention time (tR)=8.2 min was derived from Antrodin C (MW 329), and M1 (m/z 331 [M-H]^−, tR=4.4 min) was dicarboxylic acid by hydrolysis of Antrodin C; M2 and M3 (m/z 345 [M-H]^−, tR=7.7 and 8.4 min), which were 14 larger than those of M1, were two kinds of monomethyl esters of M1; M4 (m/z 313 [M-H]^−, tR=21.6 min) was Antrodin A and M5 (m/z 312 [M-H]^−, tR=11.5 min) was Antrodin B. The structures of Antrodin C and its metabolites were shown in FIG. 5.

CC(C)=CCOc1ccc(C2=C(CC(C)C)C(=O)N(O)C2=O)cc1 [Antrodin C]
Metabolites found in bile: M2-4
